No constants are given. Whether binding was seen depends on the method and setting. Some results given as binding are weak or reduced against the parent protein; the word gives no strength.

In the test the target is bovine nonmuscle myosin regulatory light chain (RLC, myosin light chain 9, MYL9) (bovine) (UniProt Q5E9E2). The experiment in a line: cryo-EM structure; dephosphorylated shutdown (10S) NM2A; 140 mM KCl, 10 mM Mops pH 7.2, 0.1 mM EGTA, 2 mM MgCl2, 1 mM ATP; cross-linked with 1 mM BS3 for 30 min at 25°C; head region 3.0 Å, whole molecule 6.3 Å; both purified.

B1: bovine nonmuscle myosin regulatory light chain (RLC, myosin light chain 9, MYL9) (protein, UniProt Q5E9E2 1-172)
chain: MSSKRAKTKTTKKRPQRATSNVFAMFDQSQIQEFKEAFNMIDQNRDGFIDKEDLHDMLASLGKNPTDEYLDAMMNEAPGPINFTMFLTMFGEKLNGTDPEDVIRNAFACFDEEATGTIQEDYLRELLTTMGDRFTDEEVDELYREAPIDKKGNFNYIEFTRILKHGAKDKDD
As for B1, the binding result is “binds”.

Values taken from article PMC13089345.
